# PubChem BioAssay AID1053208, Peter MacCallum Cancer Centre – 2014
# Purpose: 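Synthetic lethal interactions between gene loss and doxorubicin in osteosarcoma cells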 (primary screen)
# Cell system: mouse osteosarcoma cells, early-passage culture from an engineered mouse model of fibroblastic bone tumour
# Reagent: siRNA pool against mouse genes, 40 nM
# Time to read-out: about 120 h (48 h before drug, then 72 h with drug)
# Challenge: doxorubicin 100 nM for 72 h, roughly 30-40% inhibitory dose
# Measurement: 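Viability read as ATP luminescence after 72 h of 100 nM doxorubicin or none, duplicate wells averaged, scaled to non-targeting siRNA, then expressed as robust z-scores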
# Direction: viability z-score with doxorubicin: higher = more viable cells under doxorubicin; viability z-score without drug: higher = more viable cells with knock-down alone
# Rule for the call: 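a pool counts as active when its viability z-score with doxorubicin is -2 or below and its z-score without drug lies between -2 and 2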
# In all, the deposit lists about 17,000 reagents; shown is a random part of them. 788 of them (4.7%) count as active. 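Calls rest on z-score classes alone; an extra cut-off of viability at most 70% of control was not applied to them.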 Unmarked entries are inactive. Further read-outs or replicates are left out here.
gene,combined z-score class,viability z-score with doxorubicin,viability z-score without drug
Sec14l1 (GeneID 74136),no change with or without drug,0,-0.84
Zrsr2-ps1 (GeneID 22183),low cell count with doxorubicin only (active),-2.25,-0.51
Chn1 (GeneID 108699),no change with or without drug,0,0.84
Zfp688 (GeneID 69234),no change with or without drug,0.56,1.18
Mmp1b (GeneID 83996),no change with or without drug,-1.91,-1.18
Or4c11c (GeneID 258898),no change with or without drug,-0.45,-0.51
Ddx3x (GeneID 13205),no change with or without drug,0.45,0.51
Qser1 (GeneID 99003),no change with or without drug,-1.12,0.34
Relt (GeneID 320100),no change with or without drug,-0.45,0.51
Syne2 (GeneID 319565),no change with or without drug,0.79,-0.17
Tmed5 (GeneID 73130),no change with or without drug,1.01,0.34
Slc19a1 (GeneID 20509),no change with or without drug,-1.01,0.17
Srsf3 (GeneID 20383),low cell count with and without drug,-2.92,-3.2
Zfhx4 (GeneID 80892),no change with or without drug,-0.67,0.17
Mrpl10 (GeneID 107732),no change with or without drug,0.67,-1.01
D330005C11Rik (GeneID 319398),no change with or without drug,-0.67,0.17
Erdr1x (GeneID 170942),no change with or without drug,-1.57,-1.01
Col1a2 (GeneID 12843),no change with or without drug,1.12,1.52
Mtnr1a (GeneID 17773),no change with or without drug,1.57,-1.18
Rab10 (GeneID 19325),no change with or without drug,-0.34,1.18

Limited to “combined z-score class”, for 2 of the entries above:
D330005C11Rik (GeneID 319398) = no change with or without drug
Erdr1x (GeneID 170942) = no change with or without drug
